Source: PubChem BioAssay AID1259254 (NCATS, 2017)

Aim: 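Finding genes that stop cells copying their DNA twice in one cycle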 (primary screen)
Cells: human HCT116 colorectal cancer cells
Knock-down reagent: single siRNA against human genes
Duration: 3 days
Measurement: 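Imaged Hoechst DNA stain sorts each cell into a cycle phase by DNA amount; per plate, G2 fraction set to 0% for non-targeting and 100% for GMNN siRNA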
Direction: G2 robust z-score and G2 cells, % of GMNN control: higher = more G2 cells, more excess DNA replication; raw share of cells in G2: higher = larger share of cells with G2 DNA content
Rule for the call: 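Active siRNAs have a G2 robust z of 5 or more median absolute deviations over the median, which in these data means about 38% or higher of GMNN control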
The whole screen tested about 59,000 reagents; this is a part drawn at random. In the full data, about 1,550 (2.6%) were called active. 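G2 share is only a proxy for re-replication; each gene was hit by three separate siRNAs, and active genes were retested.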 The raw values are shown without normalisation. Entries without a mark were called inactive. Reagents against one gene are numbered here. Not given: the amount of reagent.

gene	reagent no.	G2 robust z-score	G2 cells, % of GMNN control	raw share of cells in G2 (%)
ATP10A	1	-0.264	1.11	4.74
ATP10A	2	-0.439	-0.124	5.59
ATP10A	3	1.26	11.8	8.51
PCDHGB1	1	1.71	15	13
PCDHGB1	2	6.62 (active)	49.6	22.2
PCDHGB1	3	1.26	11.8	9.26
TUBB7P	1	-1.35	-6.51	3.58
TUBB7P	2	-1.01	-4.16	2.95
TUBB7P	3	0.414	5.88	6.79
PIGY	1	1.12	10.9	6.37
PIGY	2	-0.869	-3.14	2.75
PIGY	3	-0.176	1.73	3.54
KLHL21	1	-1.09	-4.71	3.2
KLHL21	2	0.668	7.66	7.14
KLHL21	3	0.364	5.53	5.42
PDCD6	1	-0.536	-0.806	3.26
PDCD6	2	-1.14	-5.03	3.75
PDCD6	3	-0.292	0.915	3.72
CYREN	1	-0.409	0.0893	4.62
CYREN	2	4.22	32.7	19.3
CYREN	3	0.507	6.54	4.42
ARL1	1	1.32	12.2	9.43
ARL1	2	0.35	5.43	6.01
ARL1	3	-0.104	2.23	5.48
ZNF277	1	1.5	13.5	8.02
ZNF277	2	0.216	4.48	7.98
ZNF277	3	0.656	7.58	6.52
E2F2	1	-0.317	0.736	5.5
E2F2	2	0.504	6.52	7.74
E2F2	3	-0.158	1.86	4.32

5 successive entries from above, for reference:
gene	reagent no.	G2 robust z-score	G2 cells, % of GMNN control	raw share of cells in G2 (%)
PDCD6	3	-0.292	0.915	3.72
CYREN	1	-0.409	0.0893	4.62
CYREN	2	4.22	32.7	19.3
CYREN	3	0.507	6.54	4.42
ARL1	1	1.32	12.2	9.43
